Source: PubChem BioAssay AID743454 (Peter MacCallum Cancer Centre, 2014)
Assay: 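Genes whose loss kills vorinostat-resistant colon cancer cells under vorinostat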 (primary screen). System: human HCT116-VR colon cancer cells, selected for vorinostat resistance. Reagents: siRNA pool against human genes, 40 nM siRNA pool. Duration: vorinostat for 24 h, read-out about 72 h after transfection. Conditions: vorinostat at 2.5 µM final. Measured: 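Cell viability by CellTiter-Fluor and caspase 3/7 activity by luminescence, each scaled to mock wells per plate, duplicates averaged, then robust z-scored over all plates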. Scale: viability robust z-score: higher = more viable cells than screen typical; caspase robust z-score: higher = more caspase 3/7 activity than screen typical. Call rule: 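Hits are knock-downs in viability class RV1/RV2 or caspase class CA1/CA2, excluding ones that killed cells in the no-drug cell-count arm; hits then retested with single siRNAs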.
Shown is one part, drawn at random, of about 18,000 deposited reagents. 450 of them (2.5%) were called active. 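Single biological run; no consistent viability z cut-off exists, so the class columns, not z-scores, define the calls.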

target gene | viability hit class | caspase hit class | viability robust z-score | caspase robust z-score | outcome
HINFP | no change | no change | 0.62 | -0.15 | inactive
SBNO1 | no change | no change | -0.11 | -0.76 | inactive
RBM8A | no change | no change | -4.88 | 1.17 | inactive
KDM4A | no change | no change | -1.67 | 2.24 | inactive
BCKDHA | no change | no change | -1.01 | 2.42 | inactive
RAB5C | no change | no change | 0.22 | -0.32 | inactive
CYP11B2 | no change | no change | 1.19 | -0.55 | inactive
PVRIG | no change | no change | 1.69 | -0.2 | inactive
TUBGCP4 | no change | no change | -0.64 | 1.4 | inactive
GUCA2A | no change | no change | 0.68 | -0.88 | inactive
BRD3 | no change | no change | 0.77 | -1.23 | inactive
GTSE1 | no change | no change | 0.28 | 0.74 | inactive
UBL3 | no change | no change | 0.36 | -0.73 | inactive
CHD9 | no change | no change | 0.6 | 0.79 | inactive
THTPA | no change | no change | -0.29 | -1.52 | inactive
GRAMD1C | no change | no change | 1.48 | 0.3 | inactive
ZNF592 | no change | no change | -1.61 | -0.22 | inactive
DEGS1 | no change | no change | 0.78 | -0.35 | inactive
NOC3L | no change | no change | 0.08 | -0.18 | inactive
EPS8 | no change | no change | -0.16 | -0.51 | inactive
STPG1 | no change | no change | -0.53 | 1.94 | inactive
TEPSIN | no change | no change | 0.94 | 1.77 | inactive
ZNF436 | no change | no change | -0.42 | -0.72 | inactive
NUMA1 | no change | no change | -1.66 | -0.3 | inactive
HEATR3 | no change | no change | -1.05 | -0.56 | inactive
PLA2G4C | no change | no change | 0.36 | -0.3 | inactive
SNAP29 | no change | no change | -0.44 | -0.41 | inactive
CDH2 | no change | no change | -0.06 | -0.1 | inactive
CEP152 | no change | no change | -0.7 | 3.78 | inactive
FANCG | no change | no change | 0.8 | 1.25 | inactive
CD248 | no change | no change | -0.22 | 1.06 | inactive
COG2 | no change | no change | -0.16 | -0.45 | inactive
CDK20 | no change | no change | -1.14 | -0.58 | inactive
UGT2B15 | no change | no change | -0.03 | -0.82 | inactive
ANAPC2 | no change | no change | -0.06 | 0.2 | inactive
TSLIG3A | no change | no change | -0.9 | 3.27 | inactive
FAH | no change | no change | 0.34 | 0.25 | inactive
CC2D1B | no change | no change | 0.46 | -0.27 | inactive
STAT3 | no change | no change | -0.04 | -0.15 | inactive
QTRT1 | RV2 (reduced viability) | no change | -3.39 | 2.68 | active
RAD9A | no change | no change | -1.31 | -0.45 | inactive
ZNF629 | RV2 (reduced viability) | no change | -3.05 | 4.64 | active
DIXDC1 | no change | no change | -0.32 | -0.26 | inactive
TERT | no change | no change | 0.21 | -0.14 | inactive
GRWD1 | no change | no change | -0.44 | 1.01 | inactive
GPR15 | no change | no change | -0.84 | 1.73 | inactive
RSPH1 | no change | no change | 0.96 | -0.59 | inactive
CDC34 | no change | no change | -1.22 | 3.32 | inactive
ZNRD2 | no change | no change | 0.31 | 2.55 | inactive
RHBDD3 | no change | CA2 (caspase activation) | -1.29 | 6.68 | active
TMEM59 | no change | no change | 0.2 | -0.3 | inactive
HIVEP3 | no change | no change | 1.22 | -0.12 | inactive
DCAF12L1 | no change | no change | 0.81 | 0.19 | inactive
TBC1D15 | no change | no change | -0.52 | -0.24 | inactive
CDCP1 | no change | no change | -0.95 | 0.72 | inactive
KLC4 | no change | no change | 0.68 | 1.14 | inactive
DDIT4 | no change | no change | 1.26 | -0.3 | inactive

Records above whose gene name begins with C or c:
target gene | viability hit class | caspase hit class | viability robust z-score | caspase robust z-score | outcome
CYP11B2 | no change | no change | 1.19 | -0.55 | inactive
CHD9 | no change | no change | 0.6 | 0.79 | inactive
CDH2 | no change | no change | -0.06 | -0.1 | inactive
CEP152 | no change | no change | -0.7 | 3.78 | inactive
CD248 | no change | no change | -0.22 | 1.06 | inactive
COG2 | no change | no change | -0.16 | -0.45 | inactive
CDK20 | no change | no change | -1.14 | -0.58 | inactive
CC2D1B | no change | no change | 0.46 | -0.27 | inactive
CDC34 | no change | no change | -1.22 | 3.32 | inactive
CDCP1 | no change | no change | -0.95 | 0.72 | inactive
